Laboratory results from paper PMC7599914.
Results are given in words; binding and its absence hold for the method and conditions named. In cells and extracts the contact can be indirect. Some entries that bind do so weakly or less than the wild type.

Amino acid sequences for entries named in this document (tags omitted). Residues count along the entry.
UniProt Q9Z0W1, residues 32-427: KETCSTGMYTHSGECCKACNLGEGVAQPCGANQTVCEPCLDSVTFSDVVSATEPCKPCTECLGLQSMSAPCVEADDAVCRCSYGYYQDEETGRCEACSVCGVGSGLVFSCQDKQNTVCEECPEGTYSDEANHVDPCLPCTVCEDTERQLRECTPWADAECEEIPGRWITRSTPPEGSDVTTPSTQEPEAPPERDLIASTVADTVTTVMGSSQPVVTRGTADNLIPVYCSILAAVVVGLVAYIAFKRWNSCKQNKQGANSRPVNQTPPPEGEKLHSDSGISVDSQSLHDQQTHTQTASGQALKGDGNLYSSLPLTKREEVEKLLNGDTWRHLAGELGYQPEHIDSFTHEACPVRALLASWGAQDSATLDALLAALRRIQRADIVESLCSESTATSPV

Key:
[1] = target: p75 neurotrophin receptor (mouse (endogenous in Tibialis anterior muscle)) (UniProt Q9Z0W1); assay: co-IP; 1 mg nuclear extract of Tibialis anterior from mdx mice; rabbit anti-p75NTR (10 ug) and protein A-agarose, 4 °C; blot for p75NTR and necdin
[2] = target: p75 neurotrophin receptor (mouse (endogenous in Tibialis anterior muscle)) (UniProt Q9Z0W1); assay: condition: only nuclear extract of muscle from wild-type (WT) mice; co-IP; 1 mg nuclear extract of Tibialis anterior from wild-type (WT) mice; rabbit anti-p75NTR (10 ug) and protein A-agarose, 4 °C; blot for p75NTR and necdin

binding [1]: binds
binding [2]: no binding
B1: necdin (protein, UniProt P25233 1-325)
chain: MSEQSKDLSDPNFAAEVPDCEMQDSDAVPVGIPPPASLAANLAGPPCAPEGPMAAQQASPPPEERIEDVDPKILQQAAEEGRAHQPQSPARPIPAPPAPAQLVQKAHELMWYVLVKDQKRMVLWFPDMVKEVMGSYKKWCRSILRRTSVILARVFGLHLRLTNLHTMEFALVKALSPEELDRVALNNRMPMTGLLLMILSLIYVKGRGAREGAVWNVLRILGLRPWKKHSTFGDVRKIITEEFVQQNYLKYQRVPHIEPPEYEFFWGSRANREITKMQIMEFLARVFKKDPQAWPSRYREALEQARALREANLAAQAPRSSVSED
